Like-named read-outs stand apart in the source and are kept apart here. No constants are given. Whether binding was seen depends on the method and setting. In cells and extracts the contact can be indirect. Some entries that bind do so weakly or less than the wild type. One block for each molecule: values may come before it.
Legend:
Experiment in all cases: pull-down
[1] = biological target: H1.2 K17Ac (H1.2 acetylated at lysine 17) (human) (UniProt P16403)
[2] = biological target: linker histone H1.2 (unmodified) (human) (UniProt P16403)
[3] = biological target: H1.2 K64Ac (H1.2 acetylated at lysine 64) (human) (UniProt P16403)
[4] = biological target: H1.2 K17K64Ac (H1.2 acetylated at lysines 17 and 64) (human) (UniProt P16403)
[5] = biological target: H1.2 K17Ac (H1.2 acetylated at lysine 17) (human) (UniProt P16403); remark: listed apart in the source
[6] = biological target: H1.2 K17K64Ac (H1.2 acetylated at lysines 17 and 64) (human) (UniProt P16403); remark: listed apart in the source

Protein sequences, listed by entry. Tags and fused reporters are not part of them.
UniProt P16403: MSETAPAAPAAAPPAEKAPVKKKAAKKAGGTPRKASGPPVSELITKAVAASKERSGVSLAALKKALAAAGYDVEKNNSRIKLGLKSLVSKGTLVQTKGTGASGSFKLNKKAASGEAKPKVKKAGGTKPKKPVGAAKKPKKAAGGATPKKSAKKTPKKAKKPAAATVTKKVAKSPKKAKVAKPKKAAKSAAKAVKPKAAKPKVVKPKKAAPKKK
UniProt Q6ZN18: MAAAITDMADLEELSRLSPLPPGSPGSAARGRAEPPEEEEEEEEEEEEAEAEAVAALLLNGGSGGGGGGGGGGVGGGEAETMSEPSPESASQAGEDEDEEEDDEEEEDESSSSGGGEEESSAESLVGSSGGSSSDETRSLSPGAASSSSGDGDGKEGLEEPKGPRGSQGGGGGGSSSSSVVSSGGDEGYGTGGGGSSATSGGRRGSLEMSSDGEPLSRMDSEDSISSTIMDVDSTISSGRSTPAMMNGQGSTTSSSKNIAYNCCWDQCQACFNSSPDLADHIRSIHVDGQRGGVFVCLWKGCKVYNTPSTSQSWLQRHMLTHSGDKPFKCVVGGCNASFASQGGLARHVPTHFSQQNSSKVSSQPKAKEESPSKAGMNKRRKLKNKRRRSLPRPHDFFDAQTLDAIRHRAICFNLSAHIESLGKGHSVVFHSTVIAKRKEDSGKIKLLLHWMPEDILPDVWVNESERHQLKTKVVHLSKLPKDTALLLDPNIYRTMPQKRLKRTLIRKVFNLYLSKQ
UniProt Q9P0U4: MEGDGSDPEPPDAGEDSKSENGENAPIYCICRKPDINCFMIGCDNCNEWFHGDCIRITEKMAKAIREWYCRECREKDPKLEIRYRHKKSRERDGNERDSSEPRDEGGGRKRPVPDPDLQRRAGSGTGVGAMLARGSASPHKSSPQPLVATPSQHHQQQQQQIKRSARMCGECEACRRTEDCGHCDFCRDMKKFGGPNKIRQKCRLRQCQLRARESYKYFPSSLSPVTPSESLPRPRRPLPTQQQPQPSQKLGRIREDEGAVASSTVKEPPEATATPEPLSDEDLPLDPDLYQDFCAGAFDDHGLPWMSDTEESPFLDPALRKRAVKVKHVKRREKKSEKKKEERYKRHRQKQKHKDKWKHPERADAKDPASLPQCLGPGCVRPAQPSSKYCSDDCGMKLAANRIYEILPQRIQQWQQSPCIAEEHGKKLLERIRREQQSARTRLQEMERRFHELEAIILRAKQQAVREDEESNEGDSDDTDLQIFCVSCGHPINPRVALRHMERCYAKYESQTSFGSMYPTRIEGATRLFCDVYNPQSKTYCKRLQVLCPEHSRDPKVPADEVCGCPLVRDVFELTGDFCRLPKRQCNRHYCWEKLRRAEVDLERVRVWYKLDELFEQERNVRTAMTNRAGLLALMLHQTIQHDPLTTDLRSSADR
UniProt Q01105: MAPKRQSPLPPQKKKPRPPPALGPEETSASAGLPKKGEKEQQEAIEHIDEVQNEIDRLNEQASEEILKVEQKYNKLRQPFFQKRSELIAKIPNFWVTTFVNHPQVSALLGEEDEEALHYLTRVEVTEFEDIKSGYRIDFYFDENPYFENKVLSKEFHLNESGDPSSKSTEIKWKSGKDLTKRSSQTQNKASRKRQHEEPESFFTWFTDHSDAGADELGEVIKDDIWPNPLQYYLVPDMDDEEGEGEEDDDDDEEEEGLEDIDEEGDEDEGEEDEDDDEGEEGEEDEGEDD
UniProt Q15022: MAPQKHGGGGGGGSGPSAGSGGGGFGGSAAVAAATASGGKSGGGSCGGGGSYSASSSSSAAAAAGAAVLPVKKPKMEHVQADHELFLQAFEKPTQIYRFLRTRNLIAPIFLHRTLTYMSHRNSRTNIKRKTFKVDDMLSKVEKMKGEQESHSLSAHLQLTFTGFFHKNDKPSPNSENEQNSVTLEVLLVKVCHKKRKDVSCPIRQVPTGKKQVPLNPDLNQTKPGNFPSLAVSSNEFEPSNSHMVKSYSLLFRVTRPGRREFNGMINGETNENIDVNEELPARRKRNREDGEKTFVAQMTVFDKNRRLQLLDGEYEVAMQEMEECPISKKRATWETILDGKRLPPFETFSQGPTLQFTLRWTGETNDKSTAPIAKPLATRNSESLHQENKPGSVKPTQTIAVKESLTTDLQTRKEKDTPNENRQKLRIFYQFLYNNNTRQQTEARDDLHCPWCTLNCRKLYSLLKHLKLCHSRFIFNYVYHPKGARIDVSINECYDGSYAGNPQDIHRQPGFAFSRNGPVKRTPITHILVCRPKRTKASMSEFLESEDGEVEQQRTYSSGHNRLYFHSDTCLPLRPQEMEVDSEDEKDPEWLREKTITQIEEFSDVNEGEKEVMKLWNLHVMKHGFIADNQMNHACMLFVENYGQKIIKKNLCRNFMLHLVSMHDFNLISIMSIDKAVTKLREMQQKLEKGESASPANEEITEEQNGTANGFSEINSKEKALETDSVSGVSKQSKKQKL
UniProt Q9UBL3: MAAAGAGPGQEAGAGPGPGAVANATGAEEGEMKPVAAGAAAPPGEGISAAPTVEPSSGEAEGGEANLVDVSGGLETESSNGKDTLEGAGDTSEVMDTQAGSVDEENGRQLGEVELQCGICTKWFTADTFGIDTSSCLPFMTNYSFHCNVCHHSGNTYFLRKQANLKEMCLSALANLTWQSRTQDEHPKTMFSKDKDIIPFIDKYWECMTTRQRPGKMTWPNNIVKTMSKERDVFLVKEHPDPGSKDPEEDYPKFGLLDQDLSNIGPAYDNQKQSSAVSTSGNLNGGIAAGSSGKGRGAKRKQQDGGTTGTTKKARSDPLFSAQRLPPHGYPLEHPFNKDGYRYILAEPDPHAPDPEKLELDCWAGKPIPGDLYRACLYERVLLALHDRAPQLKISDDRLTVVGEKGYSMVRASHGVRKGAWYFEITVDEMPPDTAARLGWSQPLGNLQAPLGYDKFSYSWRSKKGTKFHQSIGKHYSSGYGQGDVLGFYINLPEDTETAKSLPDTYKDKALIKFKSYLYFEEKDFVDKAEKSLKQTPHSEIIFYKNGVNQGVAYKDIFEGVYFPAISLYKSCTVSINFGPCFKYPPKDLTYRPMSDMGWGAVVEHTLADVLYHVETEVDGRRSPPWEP

Molecule: AEBP2 (from UniProt Q6ZN18 1-517)
- binding [1]: binds
- binding [2]: binds

Molecule: CXXC1 (from UniProt Q9P0U4 1-656)
- binding [1]: binds
- binding [2]: binds

Molecule: SET (from UniProt Q01105 1-290)
- binding [3]: binds
- binding [1]: binds
- binding [4]: binds
- binding [2]: binds

Molecule: SUZ12 (from UniProt Q15022 1-739)
- binding [1]: binds
- binding [2]: binds

Next, values leading:

- binding [1]: binds
- binding [2]: binds
Molecule: ASH2L (from UniProt Q9UBL3 1-628)

- binding [5]: binds
- binding [6]: binds
B1: ASCC2 (protein, UniProt Q9H1I8 1-757)
chain: MPALPLDQLQITHKDPKTGKLRTSPALHPEQKADRYFVLYKPPPKDNIPALVEEYLERATFVANDLDWLLALPHDKFWCQVIFDETLQKCLDSYLRYVPRKFDEGVASAPEVVDMQKRLHRSVFLTFLRMSTHKESKDHFISPSAFGEILYNNFLFDIPKILDLCVLFGKGNSPLLQKMIGNIFTQQPSYYSDLDETLPTILQVFSNILQHCGLQGDGANTTPQKLEERGRLTPSDMPLLELKDIVLYLCDTCTTLWAFLDIFPLACQTFQKHDFCYRLASFYEAAIPEMESAIKKRRLEDSKLLGDLWQRLSHSRKKLMEIFHIILNQICLLPILESSCDNIQGFIEEFLQIFSSLLQEKRFLRDYDALFPVAEDISLLQQASSVLDETRTAYILQAVESAWEGVDRRKATDAKDPSVIEEPNGEPNGVTVTAEAVSQASSHPENSEEEECMGAAAAVGPAMCGVELDSLISQVKDLLPDLGEGFILACLEYYHYDPEQVINNILEERLAPTLSQLDRNLDREMKPDPTPLLTSRHNVFQNDEFDVFSRDSVDLSRVHKGKSTRKEENTRSLLNDKRAVAAQRQRYEQYSVVVEEVPLQPGESLPYHSVYYEDEYDDTYDGNQVGANDADSDDELISRRPFTIPQVLRTKVPREGQEEDDDDEEDDADEEAPKPDHFVQDPAVLREKAEARRMAFLAKKGYRHDSSTAVAGSPRGHGQSRETTQERRKKEANKATRANHNRRTMADRKRSKGMIPS
